{
  "source": "patent US9464215B2",
  "about": "“Use of a ketal as a solvent in adhesives and ketal-containing adhesive composition” (OXITENO S.A. INDÚSTRIA E COMÉRCIO, priority 2012, dated 2016)",
  "assay": "Solubilization and gel formation of 2 wt% polychloroprene solution",
  "format": "physicochemical",
  "conditions": "2% by weight of polymer, rest for 24 hours",
  "experimental": "A polychloroprene solution was prepared in 2-methyl-2-ethyl-1,3-dioxolane at a concentration of 2% by weight of the polymer, which was allowed to rest for 24 hours. […] Gel formation usually takes place by using toluene or an aromatic hydrocarbon solvent, and was not expected in the case of oxygenated solvents, such as 2-methyl-2-ethyl-1,3-dioxolane.",
  "note": "At least one read-out could not be matched to a standard name with certainty.",
  "data": [
    {"smiles": "CCC1(C)OCCO1", "note": "[2-methyl-2-ethyl-1,3-dioxolane]", "values": [
      {"measurement": "Solubilization of polychloroprene", "result": "complete solubilization of the polymer"}
    ]}
  ]
}
